According to patent US20250186538A1 (The General Hospital Corporation, priority 2022, published 2025):

Test: peptide made by a vendor (peptide synthesis; HBTU/DIPEA (solution-phase amidation))
Settings: whole synthesis

**Q.** With GGNGDFEEIPEEYL as the sequence, how does the “final purity (method not given)” value read?
**A.** >98%

End groups of sequences in plain letters are not given here.
